This note sets out measurements from PMC3509141.

Protein sequences, listed by entry. Tags and fused reporters are not part of them. Lines headed by an entry give the natural chain unless they say otherwise; changes in a name come on top. Chains listed by the source or under a name are the forms on record and can include a tag or linker. Residues count along the entry.
UniProt Q04206: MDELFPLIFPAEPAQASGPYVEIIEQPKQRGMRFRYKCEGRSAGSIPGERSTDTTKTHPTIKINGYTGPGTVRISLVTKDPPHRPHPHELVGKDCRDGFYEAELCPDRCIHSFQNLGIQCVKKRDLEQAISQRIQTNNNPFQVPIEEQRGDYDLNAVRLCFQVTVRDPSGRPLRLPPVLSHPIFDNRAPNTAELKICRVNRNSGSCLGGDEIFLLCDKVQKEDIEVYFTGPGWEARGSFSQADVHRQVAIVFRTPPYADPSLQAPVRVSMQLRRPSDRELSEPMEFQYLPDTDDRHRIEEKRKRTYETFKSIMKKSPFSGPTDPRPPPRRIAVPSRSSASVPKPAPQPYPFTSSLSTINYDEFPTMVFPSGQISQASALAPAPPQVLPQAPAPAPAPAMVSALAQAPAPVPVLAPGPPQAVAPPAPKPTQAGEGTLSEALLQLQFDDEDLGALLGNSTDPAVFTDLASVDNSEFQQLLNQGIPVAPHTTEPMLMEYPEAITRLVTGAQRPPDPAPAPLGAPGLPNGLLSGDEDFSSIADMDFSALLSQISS
UniProt P06401: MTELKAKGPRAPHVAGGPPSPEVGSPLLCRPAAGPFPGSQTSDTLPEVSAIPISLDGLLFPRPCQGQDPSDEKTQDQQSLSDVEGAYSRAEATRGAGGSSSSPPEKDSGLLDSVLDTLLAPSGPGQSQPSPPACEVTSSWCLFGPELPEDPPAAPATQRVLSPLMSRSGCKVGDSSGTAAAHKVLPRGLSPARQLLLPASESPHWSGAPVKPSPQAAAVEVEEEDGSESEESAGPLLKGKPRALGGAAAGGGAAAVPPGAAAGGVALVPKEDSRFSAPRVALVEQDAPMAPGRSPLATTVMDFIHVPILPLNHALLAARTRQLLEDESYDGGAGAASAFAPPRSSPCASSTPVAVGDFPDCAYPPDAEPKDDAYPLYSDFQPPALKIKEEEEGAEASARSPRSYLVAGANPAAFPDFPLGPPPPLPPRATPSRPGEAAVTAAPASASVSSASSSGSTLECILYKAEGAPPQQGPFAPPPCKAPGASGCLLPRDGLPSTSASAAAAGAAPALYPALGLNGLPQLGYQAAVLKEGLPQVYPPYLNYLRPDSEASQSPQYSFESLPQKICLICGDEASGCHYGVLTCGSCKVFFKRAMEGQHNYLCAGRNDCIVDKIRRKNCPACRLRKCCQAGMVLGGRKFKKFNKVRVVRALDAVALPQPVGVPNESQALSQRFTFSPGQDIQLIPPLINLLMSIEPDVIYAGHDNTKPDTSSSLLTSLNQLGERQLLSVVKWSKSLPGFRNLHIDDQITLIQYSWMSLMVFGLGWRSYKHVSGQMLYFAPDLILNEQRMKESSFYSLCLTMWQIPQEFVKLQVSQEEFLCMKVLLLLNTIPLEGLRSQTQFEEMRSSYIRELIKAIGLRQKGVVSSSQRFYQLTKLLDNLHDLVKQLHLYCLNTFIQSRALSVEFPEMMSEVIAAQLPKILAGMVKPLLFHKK
Halo-tagged progesterone receptor A (PRA): residues 165-933 of P06401

No constants are given. Whether binding was seen depends on the method and setting. For some assays here: In cells and extracts the contact can be indirect. Some results given as binding are weak or reduced against the parent protein; the word gives no strength.

One assay deals with Strep-tagged p65 (UniProt Q04206). The assay can be described thus: co-IP; lysates of myometrial cells transfected with Strep-p65 and Halo-tagged PRA or PRB; immunoprecipitated with anti-Strep antibody and protein G-agarose at 4°C, lysis buffer 1% NP40, 150 mM NaCl, 50 mM Tris-HCl pH 7.4, 1 mM EDTA, 10% glycerol; Western blot with anti-Halo antibody.
Assay [1] has as its target progesterone receptor (endogenous, myometrial cells) (human (endogenous in primary myometrial cells)) (UniProt P06401). The assay can be described thus: TF:TF array; unpublished data; IL-1β-stimulated myometrial cells without overexpression of either PR or p65.

Consider “Halo-tagged progesterone receptor A (PRA) (from UniProt P06401-2 1-769)”, for which, in the assay with Strep-tagged p65, the binding result is recorded as “no binding”.
In the case of “activated p65 (endogenous, IL-1β-stimulated myometrial cells) (from UniProt Q04206 1-551)”, in assay [1], the binding result is listed as “binds”.
